For 62 molecules, cell number change and AC50 results are on record in PubChem BioAssay AID2685 (National Center for Advancing Translational Sciences (NCATS), 2010).

Some of the results follow. These are further read-outs of the screen, such as a control signal, another cell line or another target. No call is given for them. Compounds called inactive in the main read-out are mostly missing here. Words in brackets tell the shape of the fitted curve; partial curves, single points and poor fits give uncertain potencies.

This assay can be described thus: qHTS Assay for Lipid Storage Modulators in Drosophila S3 Cells.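 For cell number change: cells counted by Cell Tracker Red CMTPX staining in the red channel.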 The conditions noted are these: BODIPY lipid droplet fluorescence, 18-24 h; for cell number change: measured here: cell count max response, cells fed with added oleic acid. A digest of the protocol:
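Laser-scanning cytometry quantifies lipid droplet accumulation (500–530 nm total intensity; droplet/cell object ratio) in oleic acid-fed (400 uM added) Drosophila S3 cells treated with a concentration series. 20 uM Triacsin C defined 100% inhibition.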

Where [1] appears, read: measured here: lipid fluorescence (Fed channel) AC50, cells fed with added oleic acid.
The mark [2] stands for this setting: measured here: cell number channel AC50, cells fed with added oleic acid.

Usually AC50 stands for the concentration at which the activity in the assay is half-maximal. Higher therefore signals weaker potency.

In the case of `CCN(CC)c1ccc(/C=C(\C#N)C(=O)NCc2ccco2)cc1`, the cell number change was -11.5%. Moreover, under setting [1], the AC50 was 29.1 µM [falling, single point].

As for `CCN(CC)c1ccc(C(=O)OCC(=O)Nc2cc(C)on2)cc1`, the cell number change is 18.2%. The AC50 under setting [2] is 0.58 µM [rising, full curve, poor fit]. The AC50 under setting [1] was 1.46 µM [rising, full curve].

As to `CCCC(=O)Nc1cc(Cl)ccc1N1CCN(C(=O)CC)CC1`, the cell number change is 13.3%. Under setting [1], the AC50 is 16.4 µM [rising, single point].

As for `COc1cc(C2c3c([nH]c(=O)[nH]c3=O)Nc3ccc4ccccc4c32)ccc1O` (centres undefined), the cell number change was determined as 5.83%. Also, the AC50 under setting [1] is 0.092 µM [rising, full curve, poor fit].

`Cc1ccc(-n2nc(C)c(NC(=O)CCl)c2C)cc1`: the cell number change was -20.2%.

Turning to `O=C(NCc1ccccc1)C(c1ccc(F)cc1)N(C(=O)c1csnn1)c1ccccc1` (centres undefined), the cell number change amounted to 16%.

Regarding `COc1cccc(N(CC(=O)NC2CCCC2)C(=O)CCCC(=O)Nc2ccccn2)c1`, the cell number change was determined as 7.92%. Moreover, under setting [1], the AC50 is 0.58 µM [rising, partial curve].

Regarding `S=C(NCCc1ccccc1)Nc1cnc2ccccc2c1`, the cell number change stood at 23.6%. Besides, under setting [1], the AC50 was 2.91 µM [falling, single point].

With `COCC(C)n1c(SCC(=O)N2CCc3ccccc3C2)nc2ccccc2c1=O` (centres undefined), the cell number change was -3.91%.

As for `CSCCC(NS(=O)(=O)c1ccccc1F)C(=O)NC(C)c1ccccc1` (centres undefined), the cell number change is -5.41%. The AC50 under setting [2] is 0.0517 µM [falling, partial curve, poor fit].

`COC(=O)c1oc2c(c1C)C1(CCC2)SCCS1`: the cell number change was -16.1%. In addition, under setting [1], the AC50 is 29.1 µM [falling, single point].

`CC(OC(=O)c1ccccc1CCc1ccccc1)C(N)=O` (centres undefined): the cell number change is 30.6%. Moreover, under setting [2], the AC50 was 0.731 µM [rising, full curve, poor fit]. The AC50 under setting [1] is 29.1 µM [rising, single point].

For `COc1ccc(NC(=S)NC(=O)CC(C)C)c(OC)c1`, the cell number change turned out to be 13.7%.

Take `CCc1ccc(OCc2n[nH]c(=S)n2C(C)CCCC(C)C)cc1` (centres undefined): the cell number change was -33.5%. Besides, the AC50 under setting [2] was 0.92 µM [falling, full curve, poor fit].

As for `CC1(C)Cc2nc3sc4c(N(CCO)CCO)nnnc4c3cc2CO1`, the cell number change is 3.56%. The AC50 under setting [1] is 20.6 µM [falling, partial curve].

Take `S=C(NCCc1ccc(Cl)cc1)Nc1ccc(Cl)cc1Cl`: the cell number change is -36%. The AC50 under setting [2] is 16.4 µM [falling, single point]. Under setting [1], the AC50 is 20.6 µM [falling, partial curve].

Consider `CC(C)(C)SCCNC(=O)CN1C(=O)c2ccccc2S1(=O)=O`, for which the cell number change was -17.8%. Moreover, the AC50 under setting [1] is 9.2 µM [falling, partial curve].

`O=C1N(Cc2cccc(Cl)c2)C[C@@H]2C[C@@H](c3c[nH]c4ccccc34)N3CCC[C@@]123`: the cell number change worked out at 10.4%. Further, under setting [1], the AC50 was 29.1 µM [falling, single point].

Take `COc1cc(/C=N/NC(=O)c2nnn(-c3nonc3N)c2-c2cccs2)ccc1O`: the cell number change was -14.4%.

With `N#Cc1c(NC(=O)c2ccco2)sc2c1CCC2`, the cell number change is 19.5%.

As to `CCS(=O)(=O)N1CCC(C(=O)NC2CCCCC2)CC1`, the cell number change was -27.2%. The AC50 under setting [2] is 0.651 µM [falling, full curve, poor fit]. For the same molecule, the AC50 under setting [1] is 4.11 µM [falling, full curve].

For the molecule `Cc1onc(-c2ccccc2)c1C(=O)NC(C)c1ccc2c(c1)OCO2` (centres undefined), the cell number change is -20.2%. Also, the AC50 under setting [1] was 23.1 µM [falling, single point].

Take `Cc1ccc(-c2ccc(CCC(=O)O)n2NC(=O)c2ccco2)cc1`: the cell number change was -36.7%. For the same molecule, the AC50 under setting [2] is 0.291 µM [falling, full curve]. The concentration at half-maximal activity (AC50) under setting [1] was 0.291 µM [falling, full curve, poor fit].

On to `CCN(CC)CCN(C(=O)c1ccc(S(=O)(=O)N(C)C2CCCCC2)cc1)c1nc2ccc(OC)cc2s1`, for which the cell number change was found to be 5.49%.

As to `Fc1ccccc1-c1nc2nc3ccccc3nc2n1CC1CCCO1` (centres undefined), the cell number change came to 18.2%. Besides, the AC50 under setting [1] is 20.6 µM [rising, single point].

For `N#C/C(=C\c1ccc(-c2cccc([N+](=O)[O-])c2)o1)C(=O)N1CCOCC1`, the cell number change is 5.94%. In addition, the AC50 under setting [1] was 0.82 µM [rising, single point].

`O=C(c1ccc(F)cc1)N(C(=O)c1ccc(F)cc1)c1ncccn1`: the cell number change worked out at 8.21%. The AC50 under setting [1] is 0.58 µM [falling, full curve].

`CC(=O)c1ccc(N2CCN(CCC#N)CC2)c(F)c1`: under setting [1], the AC50 is 0.731 µM [falling, single point].

As for `COc1ccccc1Nc1ncnc2ccccc12`, the cell number change turned out to be 1.47%.

`CCOc1ccc(S(=O)(=O)N2CCCCC2)cc1NS(=O)(=O)c1cccs1`: the cell number change is -91.2%. Besides, the AC50 under setting [2] is 8.2 µM [falling, partial curve]. The AC50 under setting [1] was 20.6 µM [falling, partial curve].

For the molecule `Cc1cc(-n2c(SCC(=O)NCCC3=CCCCC3)nc3n[nH]c(C)c3c2=N)ccc1Cl`, the cell number change was -30.6%. Besides, the AC50 under setting [2] is 13 µM [falling, partial curve]. In addition, under setting [1], the AC50 is 18.4 µM [falling, single point].

Turning to `O=C(NCC(c1ccco1)N1CCN(c2ccc(F)cc2)CC1)c1ccco1` (centres undefined), the AC50 under setting [1] was 4.11 µM [rising, single point].

Take `CCn1ncc(C2=NOC(C(=O)Nc3c(C)nn(Cc4ccc(F)cc4)c3C)C2)c1C` (centres undefined): the cell number change turned out to be 1.16%. Moreover, the concentration at half-maximal activity (AC50) under setting [1] is 0.517 µM [rising, full curve, poor fit].

For the molecule `CCCCOc1ccc(CSc2nc(C)[nH]c2[N+](=O)[O-])cc1[N+](=O)[O-]`, the AC50 under setting [2] was 5.8 µM [rising, single point] and the AC50 under setting [1] was 4.61 µM [rising, partial curve].

For `Cn1c(C=O)c(C#Cc2ccccc2)c2ccccc21`, the cell number change is -27.3%. For the same molecule, the half-maximal activity concentration (AC50) under setting [1] is 4.61 µM [falling, single point].

Turning to `CC(=O)Nc1ccc(OC(=O)c2ccc(Br)c([N+](=O)[O-])c2)cc1`, the cell number change is -1.1%. The AC50 under setting [1] was 0.411 µM [falling, partial curve].

On to `CCCC[C@]12Cc3c(ccc4ccccc34)C(O1)C1=C(O2)C(=O)c2ccccc2C1=O`, for which the cell number change was determined as 22.1%. Under setting [2], the AC50 is 0.133 µM [rising, full curve, poor fit].

As for `COc1cc2c(cc1OC)CN(C(=O)Cn1ccccc1=O)CC2`, the cell number change was 10%. Also, under setting [1], the AC50 is 29.1 µM [falling, single point].

In the case of `CCOC(=O)C1=C(O)CSC1=Nc1ccc(Cl)cc1`, the cell number change is -6.09%.

On to `O=C(Nc1cccc2ccccc12)c1ccc([N+](=O)[O-])cc1`, for which the AC50 under setting [1] is 29.1 µM [falling, single point].

In the case of `O=c1c2c3c(sc2nc(N2CCNCC2)n1CCc1ccccc1)CCCCC3`, the AC50 under setting [1] is 0.00517 µM [rising, full curve, poor fit].

`Cc1cccc(N(C(=O)c2sc(C)nc2C)C(C(=O)NCC2CCCO2)c2ccccc2)c1` (centres undefined): the cell number change amounted to 7.5%.

For `CSc1c(C#N)c(N)nc2sc(C(=O)c3ccc(Cl)c(Cl)c3)c(N)c12`, the cell number change was determined as 13.5%. In addition, the AC50 under setting [2] is 2.91 µM [rising, single point].

In the case of `O=C(CN(C(=O)CCC(=O)Nc1nccs1)c1cccc(F)c1)NCC1CCCO1` (centres undefined), the cell number change was found to be 10.1%. Further, the AC50 under setting [1] is 0.82 µM [rising, full curve].

Turning to `CCN(CC)CCCn1c2c(c(SCC(=O)Nc3ccc4c(c3)OCO4)nc1=O)CCC2`, the cell number change worked out at 175%. Moreover, the AC50 under setting [2] is 25.9 µM [rising, partial curve, poor fit].

Consider `CN(C)c1ccc(/C=N/NC(=O)CCc2c[nH]c3ccccc23)cc1`, for which the cell number change amounted to 3.26%. Further, under setting [1], the AC50 was 3.26 µM [falling, partial curve].

Consider `Cc1nc(-c2ccccc2)cc(N2CCCC2)n1`, for which the cell number change stood at 0.676%.

With `COC(=O)c1[nH]nc(C(=O)OC(C)(C)C)c1-c1ccccc1`, the cell number change is -59.4%. For the same molecule, the AC50 under setting [2] is 29.1 µM [falling, single point].

On to `O=C(COc1ccccc1)N(Cc1ccco1)C1CCS(=O)(=O)C1` (centres undefined), for which the cell number change came to 39.5%. Under setting [2], the AC50 is 29.1 µM [rising, single point].

With `CCOC(=O)N1CCN(C(=O)Cn2ncn3nc(-c4cccs4)cc3c2=O)CC1`, the cell number change is 8.12%. Under setting [1], the AC50 is 32.6 µM [rising, single point].

Take `COc1ccc(COC(=O)N/N=C/c2cccs2)cc1`: the cell number change is -9.94%. Further, the AC50 under setting [1] was 0.146 µM [rising, full curve].

In the case of `O=S(=O)(Nc1cccc(S(=O)(=O)N2CCOCC2)c1)c1ccc2c(c1)OCCO2`, the AC50 is 6.51 µM [falling, single point] under setting [2] and 6.51 µM [falling, single point] under setting [1].

As for `CCN(CC(=O)Nc1ccc(OC)cc1)C(=O)Cc1ccsc1`, the cell number change is -17.6%. Further, the AC50 under setting [1] was 14.6 µM [rising, partial curve, poor fit].

As for `Fc1ccc(C(Nc2ccccn2)c2c[nH]c3ccccc23)cc1` (centres undefined), the cell number change was -29.3%. Moreover, the AC50 under setting [1] is 1.3 µM [falling, full curve, poor fit].

With `COc1ccc(-c2cc3nc(C)cc(C)n3n2)cc1`, the AC50 is, setting by setting: under setting [2], 6.51 µM [rising, single point]; under setting [1], 7.31 µM [falling, single point].

As for `COc1ccc(C2=NOC(Cn3nc(C(=O)NCc4ccc(OC(F)(F)F)cc4)cc3-c3ccccc3)C2)cc1` (centres undefined), the cell number change is -31.4%. Further, under setting [2], the AC50 was 9.2 µM [falling, partial curve].

Take `Cc1ccc(C(=O)O)cc1-c1ccc(/C=C2/NC(=O)N(c3ccccc3)C2=O)o1`: the cell number change came out at 35.6%.

With `Cc1ccc(Cl)cc1N1CCN(CC(O)COC(C)C)CC1` (centres undefined), the cell number change came out at 0.594%.

Regarding `COc1cc(OC)cc(-c2nnc(SCc3cccc(C(=O)O)c3)o2)c1`, the cell number change is 70.9%. The AC50 under setting [2] was 29.1 µM [rising, single point]. Under setting [1], the AC50 is 0.58 µM [rising, single point].

Regarding `COc1ccc(C(=O)NCCc2nnc(SCC(=O)Nc3ccccc3C(C)C)n2C)cc1`, the cell number change is 51.6%. The AC50 under setting [2] is 20.6 µM [rising, single point].

For the molecule `Cc1nn(CC(=O)Nc2ccc3c(c2)CCC3)c(C)c1[N+](=O)[O-]`, the cell number change was -16.2%. Under setting [1], the AC50 is 0.517 µM [rising, full curve, poor fit].

In the case of `Cn1c(CNC(=O)CNS(=O)(=O)c2ccccc2)cc(=O)n(C)c1=O`, the AC50 under setting [1] is 20.6 µM [rising, single point].
